Measurements: US8778958B2, “Synthesis of metabolically stable agents for alcohol and drug abuse” (priority 2008, dated 2014)
The structures given here were assigned with low confidence; some may be wrong.

Amino acid sequences for entries named in this document (tags omitted).
UniProt P35372, whole entry: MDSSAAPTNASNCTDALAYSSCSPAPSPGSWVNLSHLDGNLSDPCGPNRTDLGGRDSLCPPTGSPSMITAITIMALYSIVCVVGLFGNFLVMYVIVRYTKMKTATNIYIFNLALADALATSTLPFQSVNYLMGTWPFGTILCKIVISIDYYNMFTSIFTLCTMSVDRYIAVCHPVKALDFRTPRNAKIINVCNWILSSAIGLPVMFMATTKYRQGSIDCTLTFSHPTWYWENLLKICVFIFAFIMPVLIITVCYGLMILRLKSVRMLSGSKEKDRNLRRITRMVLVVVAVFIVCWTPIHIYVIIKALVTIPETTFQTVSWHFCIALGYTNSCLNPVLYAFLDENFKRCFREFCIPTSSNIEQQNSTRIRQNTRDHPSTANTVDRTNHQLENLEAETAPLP

Columns and labels:
[1] = target: δ-opioid receptor (Homo sapiens, UniProt P41143); test: Competitive radioligand binding, δ-opioid receptor; settings: Table 1b; for Ki: read-out: Ki (nM) ± SEM, δ, N-oxides
[2] = target: κ-opioid receptor (Homo sapiens, UniProt P41145); test: Competitive radioligand binding, κ-opioid receptor ([3H]U69593); settings: read-out: Ki (nM) ± SEM, κ; Table 1b, N-oxides
[3] = target: μ-opioid receptor (Homo sapiens, UniProt P35372); test: Competitive radioligand binding, μ-opioid receptor ([3H]DAMGO); settings: read-out: Ki (nM) ± SEM, μ; Table 1b, N-oxides

Row | Structure (SMILES) | Ki [1] | Ki [2] | Ki [3] | Inhibition of agonist binding, δ ([1]; concentration not given)
1 | CN(C(=O)c1ccc(C(F)(F)F)cc1)[C@@H]1CC[C@@]2(O)[C@H]3Cc4ccc(O)c5c4[C@@]2(CC[N+]3([O-])CC2CC2)[C@H]1O5 (stereo partly drawn) | 1640 nM | 195 nM | 378 nM | 
2 | CS(=O)(=O)c1ccc(C(=O)N[C@@H]2CC[C@@]3(O)[C@H]4Cc5ccc(O)c6c5[C@@]3(CC[N+]4([O-])CC3CC3)[C@H]2O6)cc1 (stereo partly drawn) | 187 nM | 9.2 nM | 23.8 nM | 
3 | CN(C(=O)c1ccc(C(F)(F)F)cc1)[C@H]1CC[C@@]2(O)[C@H]3Cc4ccc(O)c5c4[C@@]2(CC[N+]3([O-])CC2CC2)[C@H]1O5 (stereo partly drawn) | 148 nM | 4.9 nM | 13.4 nM | 
4 | CN(C(=O)c1ccc(Br)cc1)[C@@H]1CC[C@@]2(O)[C@H]3Cc4ccc(O)c5c4[C@@]2(CC[N+]3([O-])CC2CC2)[C@H]1O5 (stereo partly drawn) | 5090 nM | 168 nM | 193 nM | 
5 | CN(C(=O)c1ccc(Cl)c(Cl)c1)[C@@H]1CC[C@@]2(O)[C@H]3Cc4ccc(O)c5c4[C@@]2(CC[N+]3([O-])CC2CC2)[C@H]1O5 (stereo partly drawn) |  | 367 nM | 196 nM | <50% inh
